Experimental data: article PMC6386760
Results are given in words; binding and its absence hold for the method and conditions named. Binding calls can cover weak binding; strength is not graded here.

Biological target: OsHLH61 (Helix-loop-helix 61), yeast two-hybrid fusion (rice (Oryza sativa)) (UniProt B7F971)
Experiment: two-hybrid; Gal4 system (pGBKT7 / pGADT7); library screen with pGBKT7-OsHLH61 in AH109 and pairwise tests; growth on SD-LTHA (without Leu, Trp, His, Ade)

OsbHLH96, yeast two-hybrid fusion (from UniProt B7F0D7)
binding: binds
